Measured values reported in article PMC10844636.
These are yes or no findings as the source states them, for the method shown. In cells and extracts the contact can be indirect. Some results given as binding are weak or reduced against the parent protein; the word gives no strength.

The chains behind the UniProt entries cited, without tags or fusion partners.
UniProt O00571: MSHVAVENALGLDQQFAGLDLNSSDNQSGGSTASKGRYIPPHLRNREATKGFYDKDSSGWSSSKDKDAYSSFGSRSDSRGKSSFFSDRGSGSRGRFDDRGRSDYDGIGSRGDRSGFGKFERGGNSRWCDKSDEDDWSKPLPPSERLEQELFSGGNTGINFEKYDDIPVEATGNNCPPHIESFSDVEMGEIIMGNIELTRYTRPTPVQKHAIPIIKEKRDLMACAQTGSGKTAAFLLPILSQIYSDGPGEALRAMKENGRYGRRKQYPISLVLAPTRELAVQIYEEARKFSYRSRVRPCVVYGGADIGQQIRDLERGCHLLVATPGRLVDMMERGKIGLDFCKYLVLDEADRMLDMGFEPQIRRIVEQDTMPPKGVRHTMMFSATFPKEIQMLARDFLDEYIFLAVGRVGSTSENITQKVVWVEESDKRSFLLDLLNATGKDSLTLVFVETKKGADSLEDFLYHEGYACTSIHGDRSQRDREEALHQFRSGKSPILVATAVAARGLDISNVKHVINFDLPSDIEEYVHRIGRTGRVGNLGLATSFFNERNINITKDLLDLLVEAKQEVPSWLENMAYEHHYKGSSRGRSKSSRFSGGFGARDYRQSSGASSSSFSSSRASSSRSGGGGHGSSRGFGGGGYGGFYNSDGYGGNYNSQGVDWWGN
UniProt Q9NRC8: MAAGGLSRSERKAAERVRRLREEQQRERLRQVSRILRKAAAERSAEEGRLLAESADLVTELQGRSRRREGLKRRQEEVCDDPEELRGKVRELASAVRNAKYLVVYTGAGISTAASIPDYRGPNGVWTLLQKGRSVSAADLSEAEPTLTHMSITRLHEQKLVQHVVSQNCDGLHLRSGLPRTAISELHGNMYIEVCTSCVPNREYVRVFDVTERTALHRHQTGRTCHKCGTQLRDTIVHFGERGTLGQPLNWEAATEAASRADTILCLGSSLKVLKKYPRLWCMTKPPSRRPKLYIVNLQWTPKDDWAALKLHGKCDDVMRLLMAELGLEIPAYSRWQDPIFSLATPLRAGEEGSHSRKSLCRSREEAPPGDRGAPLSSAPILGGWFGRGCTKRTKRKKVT

Target: X-linked DEAD-box helicase 3 (DDX3X) (UniProt O00571)
Test: co-IP; in PANC-1 cells; which protein was precipitated and which was blotted is not told in the text shown

binding: binds
Substance: sirtuin 7 (SIRT7) (from UniProt Q9NRC8 1-400)
